At least one structure is not confirmed: it was looked up by name or label, or the drawing left a doubt.
Key:
BFTC905 xenograft = BFTC905 xenograft mouse model; format: in vivo, NOD/SCID male mice; conditions: 5 mg/kg/daily, start three days after cell injection, observed at least 17 days, vs DMSO control
Description: In vivo testing of exemestane, cephaeline and 1,4 chrysenequinone was performed in xenograft mouse models. Particularly, the model was established after injecting […] BFTC905 cells subcutaneously into the tail base of NOD/SCID male mice. Male mice were selected for these experiments since males are more prone to develop BC. The treatments started three days after the injections of the cancer cells. The treatment scheme was 30 mg/kg/every 3rd day for exemestane, 5 mg/kg/daily for cephaeline and 5 mg/kg/daily for 1,4 chrysenequinone. As controls were used animals injected with DMSO diluted in PBS (at a final concentration similar to the one of the compounds).
FIG. 3. The impact of cephaeline, exemestane and 1,4 chrysenequinone in vivo in BFTC905 xenograft mouse models.

[1] = tested on: BC cell lines: non-muscle invasive (RT112) and muscle invasive (T24, BFTC905, HT1376) cells; assay: in vitro screening of drug candidates on growth/proliferation of BC cell lines; format: cell-based
Description: The impact of the drug candidates onto the malignant phenotype of BC cells was assessed in vitro in a panel of multi-origin BC cell lines representing different stages during disease progression. These included non-muscle invasive (RT112) and muscle invasive (T24, BFTC905, HT1376) cells.
Accordingly, these compounds were selected for further investigation, here providing the response curves for four different BC cell lines. Representative response curves of the seven compounds are presented in FIG. 2, along with the respective IC50s. A clear impact was observed on the proliferation of the BC cells for all seven compounds.
FIG. 2. The dose response curves of cephaeline (i-ii), exemestane (iii-iv) and 1,4 chrysenequinone (v-vi) in the BC cell lines RT112, T24, HT1376 and BFTC905. The dose response curves of fluvoxamine (vii), amiodarone (viii), isradipine (ix) and amodiaquine (x) in the RT112 cells are also provided.

CC[C@H]1CN2CCc3cc(OC)c(OC)cc3[C@@H]2C[C@@H]1C[C@H]1NCCc2cc(O)c(OC)cc21 [cephaeline]
impact on tumor establishment or growth (BFTC905 xenograft): clear impact on tumor establishment or growth
impact on tumor establishment or growth (BFTC905 xenograft; listed as Cephaeline): significantly decreased tumor establishment or growth
proliferation rate of the BC cells (dose response curves) ([1]; BC cell lines RT112, T24, HT1376 and BFTC905, FIG. 2): significantly decreased the proliferation rate
cell growth of BC cells ([1]; in vitro, panel of BC cell lines RT112, T24, BFTC905, HT1376): prevented cell growth at relatively low concentrations

From patent US20260245655A1, “METHODS FOR DETERMINING DRUG CANDIDATES” (MOSAIQUES DIAGNOSTICS AND THERAPEUTICS AG, priority 2023, published 2026)
